For at least one entry, the source does not settle the construct or the ends of the probe. Protein sequences can lack the tags named with them.

This series concerns the target T1, RC3H2 stem-loop triple mutant Q244A,Y247A,R248E (Homo sapiens) (UniProt Q9HBD1).
T1 sequence (looked up): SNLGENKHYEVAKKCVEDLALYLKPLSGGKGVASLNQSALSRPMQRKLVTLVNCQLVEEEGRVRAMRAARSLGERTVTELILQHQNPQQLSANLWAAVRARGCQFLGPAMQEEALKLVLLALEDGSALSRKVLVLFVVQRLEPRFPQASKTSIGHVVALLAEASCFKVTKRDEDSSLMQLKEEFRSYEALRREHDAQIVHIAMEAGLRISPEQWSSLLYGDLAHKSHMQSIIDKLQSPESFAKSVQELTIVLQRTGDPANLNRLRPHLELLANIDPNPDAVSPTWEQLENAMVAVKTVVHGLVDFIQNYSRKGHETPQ
Nature of the series: ITC. The settings on record: attributed to duplex form of Tnf23; ITC: 20 mM Tris-HCl pH 8.0, 150 mM NaCl, 1 mM TCEP, 25 C; 200-500 uM RNA injected into 15-30 uM protein, one-site model; recombinant protein; residues 87-404; protein details: His6-tag, removed by TEV where applicable.

As a reminder, the Kd is the constant that tells how readily two partners part at equilibrium. “ACAUGUUUUCUGUGAAAACGGAG [Tnf23 CDE RNA, 23-nt]”: the Kd stood at 361 nM.

For the origin of these results see paper PMC4614863, “New Insights into the RNA-Binding and E3 Ubiquitin Ligase Activities of Roquins”.
